We go through one substance from article PMC6685929.

Chains of the proteins cited; added tags and fusions are not shown. Lines headed by an entry give the natural chain unless they say otherwise; changes in a name come on top. Residues count along the entry.
UniProt O70423: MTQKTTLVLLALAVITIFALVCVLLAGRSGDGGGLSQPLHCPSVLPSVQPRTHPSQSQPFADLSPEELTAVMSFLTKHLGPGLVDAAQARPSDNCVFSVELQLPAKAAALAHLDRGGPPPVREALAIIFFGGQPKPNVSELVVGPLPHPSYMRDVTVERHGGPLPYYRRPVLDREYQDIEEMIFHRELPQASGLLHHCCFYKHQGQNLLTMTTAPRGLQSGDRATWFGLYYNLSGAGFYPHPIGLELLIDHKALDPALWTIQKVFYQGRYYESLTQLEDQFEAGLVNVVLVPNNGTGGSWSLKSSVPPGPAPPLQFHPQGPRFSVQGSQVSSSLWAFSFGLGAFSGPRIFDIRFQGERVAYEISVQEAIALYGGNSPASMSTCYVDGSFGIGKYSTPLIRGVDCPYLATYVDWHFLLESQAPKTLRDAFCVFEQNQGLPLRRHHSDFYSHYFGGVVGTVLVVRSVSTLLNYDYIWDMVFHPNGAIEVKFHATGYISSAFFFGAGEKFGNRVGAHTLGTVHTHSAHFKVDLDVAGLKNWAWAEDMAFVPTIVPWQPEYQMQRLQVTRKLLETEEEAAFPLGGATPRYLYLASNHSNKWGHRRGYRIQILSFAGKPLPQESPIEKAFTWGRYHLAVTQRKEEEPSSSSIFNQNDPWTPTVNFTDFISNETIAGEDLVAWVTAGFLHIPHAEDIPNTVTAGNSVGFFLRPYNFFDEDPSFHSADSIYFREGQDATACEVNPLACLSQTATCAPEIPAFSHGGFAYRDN
UniProt Q64726, residues 18-307: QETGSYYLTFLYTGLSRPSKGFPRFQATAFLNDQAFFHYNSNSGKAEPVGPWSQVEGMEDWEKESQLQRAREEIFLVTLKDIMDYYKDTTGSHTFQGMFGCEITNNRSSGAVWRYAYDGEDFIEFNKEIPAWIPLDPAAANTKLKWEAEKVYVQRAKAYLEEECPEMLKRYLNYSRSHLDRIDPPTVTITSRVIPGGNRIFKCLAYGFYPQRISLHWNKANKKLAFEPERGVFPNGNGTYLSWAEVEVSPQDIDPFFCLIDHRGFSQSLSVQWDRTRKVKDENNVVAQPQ

No constants are given. Whether binding was seen depends on the method and setting. Binding seen in cells or lysates may run through a third protein. A result given as binding can be weak or reduced; the word gives no strength.

The experiment concerns the target GST-tagged murine AOC3, secretable form (GST-AOC3) (mouse) (UniProt O70423). Kind of experiment: pull-down; GST-AOC3 (200 µl of 50 µg/ml) or GST on GSH-sepharose with 100 µl of 1:10 diluted murine plasma in 1 x PBS; five washes; blot with α-GST and α-ZAG; only the target purified.

Regarding “murine plasma zinc-α2-glycoprotein (ZAG) (from UniProt Q64726 18-307)”, the binding result was “binds”.
